According to the supplement of paper PMC11098740:
Where a name gives a salt, the structure may show the parent alone. ± gives the standard deviation of the averaged measurements. The list shows a part of the results. Many values rest on one well or one pass, so single values are uncertain.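 The assay uses a mixed pool of 41 HAP1 clones in which 61 cancer-associated proteins bear intron-inserted fluorescent tags, and clones are distinguished by image pattern. Results are compared against DMSO-treated control wells, and the BRD4 degrader dBET6 is the positive control.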

target: BRD4 (intron 10 mScarlet tag, HAP1) (UniProt O60885); test: BRD4 median nuclear fluorescence intensity change vs DMSO (log2 fold change); higher = more BRD4 protein; conditions: 6 h

Q: Which “BRD4 median nuclear fluorescence intensity change (log2)” value does the source give for `CCCc1cc(=O)[nH]c(=S)[nH]1` [propylthiouracil] (10 µM) here?
A: The value was 0.0262.

Q: `COc1cccc2c1C(=O)c1c(O)c3c(c(O)c1C2=O)C[C@@](O)(C(=O)CO)C[C@@H]3O[C@H]1C[C@H](N)[C@H](O)[C@H](C)O1` [doxorubicin] (0.09215 µM) was tested. Which “BRD4 median nuclear fluorescence intensity change (log2)” value did it give?
A: The value was 0.077.

Q: Which “BRD4 median nuclear fluorescence intensity change (log2)” value does the source give for `COC(=O)C1=C(C)NC(C)=C(C(=O)OCC(C)C)C1c1ccccc1[N+](=O)[O-]` (configuration not stated) [nisoldipine] (9.99911 µM) here?
A: Its value is 0.0298.

Q: For `CC(C)C[C@H](NC(=O)[C@H](Cc1ccccc1)NC(=O)c1cnccn1)B(O)O` [bortezomib] (0.00595 µM), which “BRD4 median nuclear fluorescence intensity change (log2)” value is on record?
A: The value was 0.112 ± 0.13.

Q: `Cc1nc(=O)c2cc(CN(C)c3ccc(C(=O)N[C@@H](CCC(=O)O)C(=O)O)s3)ccc2[nH]1` [raltitrexed] (20 µM) was tested. Which “BRD4 median nuclear fluorescence intensity change (log2)” value did it give?
A: The value was 0.0928.

Q: Which “BRD4 median nuclear fluorescence intensity change (log2)” value does the source give for `CCCCCCCCCCC[C@@H](C[C@@H]1OC(=O)[C@H]1CCCCCC)OC(=O)[C@H](CC(C)C)NC=O` [orlistat] (10 µM) here?
A: Its value is 0.076.

Q: Which “BRD4 median nuclear fluorescence intensity change (log2)” value does the source give for `CCC(=C/[C@H](C)C/C=C/C(C)=C/[C@@H](C)C(=O)[C@@H](C)[C@H](O)[C@@H](C)C/C(C)=C/C(=O)O)/C=C/[C@@H]1OC(=O)C=C[C@@H]1C` [leptomycin b] (0.01 µM) here?
A: Its value is 0.0108.

Q: Which “BRD4 median nuclear fluorescence intensity change (log2)” value does the source give for `CO/N=C(\C(=O)N[C@@H]1C(=O)N2C(C(=O)O)=C(CSc3nnnn3C)CS[C@H]12)c1csc(N)n1` [cefmenoxime] (10 µM) here?
A: The value was 0.0392.

Q: With `Cc1ncsc1-c1ccc(CNC(=O)[C@@H]2C[C@@H](O)CN2C(=O)[C@@H](NC(=O)C2(F)CC2)C(C)(C)C)c(OCCOc2ccc(CN3CCN(c4cc(-c5ccccc5O)nnc4N)CC3)cc2)c1` [acbi1] (0.1 µM) as the molecule, how does the “BRD4 median nuclear fluorescence intensity change (log2)” value read?
A: Its value is 0.0431.

Q: `C[N+](C)(C)CCOC(N)=O` [carbachol] (9.99977 µM) was tested. Which “BRD4 median nuclear fluorescence intensity change (log2)” value did it give?
A: Its value is 0.108.

Q: How did the “BRD4 median nuclear fluorescence intensity change (log2)” value turn out when `N[C@@H](Cc1cc(I)c(Oc2ccc(O)c(I)c2)c(I)c1)C(=O)O` [liothyronine] (10 µM) was run?
A: Its value is -0.0354.

Q: For `N[C@@H](CCC(=O)N[C@@H](CSN=O)C(=O)NCC(=O)O)C(=O)O` [nitrosoglutathione] (10 µM), which “BRD4 median nuclear fluorescence intensity change (log2)” value is on record?
A: Its value is 0.0217.

Q: How did the “BRD4 median nuclear fluorescence intensity change (log2)” value turn out when `CC(=O)c1ccc(S(=O)(=O)NC(=O)NC2CCCCC2)cc1` [acetohexamide] (10 µM) was run?
A: Its value is 0.00942.

Q: With `CCN(CC)CCCC(C)Nc1ccnc2cc(Cl)ccc12` (configuration not stated) [chloroquine] (9.99975 µM) as the molecule, how does the “BRD4 median nuclear fluorescence intensity change (log2)” value read?
A: The value was 0.151.

Q: With `C=C(c1ccc(C(=O)O)cc1)c1cc2c(cc1C)C(C)(C)CCC2(C)C` [bexarotene] (20 µM) as the molecule, how does the “BRD4 median nuclear fluorescence intensity change (log2)” value read?
A: Its value is 0.16.

Q: For `CC(=O)O[C@H]1CC[C@@]2(C)C(=CC[C@@H]3[C@@H]2CC[C@]2(C)C(c4cccnc4)=CC[C@@H]32)C1` [abiraterone acetate] (20 µM), which “BRD4 median nuclear fluorescence intensity change (log2)” value is on record?
A: Its value is 0.0838.

Q: `Oc1ncnc2[nH]ncc12` [allopurinol] (10 µM) was tested. Which “BRD4 median nuclear fluorescence intensity change (log2)” value did it give?
A: Its value is 0.0389.

Q: With `NC[C@@H]1O[C@H](O[C@H]2[C@@H](O)[C@H](O[C@@H]3[C@@H](O)[C@H](N)C[C@H](N)[C@H]3O[C@H]3O[C@H](CO)[C@@H](O)[C@H](O)[C@H]3N)O[C@@H]2CO)[C@H](N)[C@@H](O)[C@@H]1O` [paromomycin] (10 µM) as the molecule, how does the “BRD4 median nuclear fluorescence intensity change (log2)” value read?
A: Its value is 0.0368.

Q: For `O=C1OCCN1/N=C/c1ccc([N+](=O)[O-])o1` [furazolidone] (10 µM), which “BRD4 median nuclear fluorescence intensity change (log2)” value is on record?
A: Its value is 0.0526.

Q: For `CC1(C)NC(=O)N(c2ccc([N+](=O)[O-])c(C(F)(F)F)c2)C1=O` [nilutamide] (20 µM), which “BRD4 median nuclear fluorescence intensity change (log2)” value is on record?
A: The value was 0.0336.

Q: With `O=C(c1cc(Cc2n[nH]c(=O)c3ccccc23)ccc1F)N1CCN(C(=O)C2CC2)CC1` [olaparib] (10 µM) as the molecule, how does the “BRD4 median nuclear fluorescence intensity change (log2)” value read?
A: The value was 0.0216.

Q: `O=C(Nc1ncc([N+](=O)[O-])s1)c1ccccc1O` [tizoxanide] (10 µM) was tested. Which “BRD4 median nuclear fluorescence intensity change (log2)” value did it give?
A: Its value is 0.124.

Q: For `Cc1nc2n(c(=O)c1CCN1CCC(c3noc4cc(F)ccc34)CC1)CCCC2` [risperidone] (10.00083684 µM), which “BRD4 median nuclear fluorescence intensity change (log2)” value is on record?
A: Its value is -0.00601.

Q: With `Cc1ccc(Cl)c(Nc2ccccc2C(=O)O)c1Cl` [meclofenamate (sodium)] (10 µM) as the molecule, how does the “BRD4 median nuclear fluorescence intensity change (log2)” value read?
A: Its value is 0.0355.

Q: For `CC(C)NC[C@@H](C(=O)N1CCN(c2ncnc3c2[C@H](C)C[C@H]3O)CC1)c1ccc(Cl)cc1` [ipatasertib dihydrochloride] (20 µM), which “BRD4 median nuclear fluorescence intensity change (log2)” value is on record?
A: The value was -0.15.

Q: How did the “BRD4 median nuclear fluorescence intensity change (log2)” value turn out when `Nc1nc(N)c2nc(CNc3ccc(C(=O)N[C@@H](CCC(=O)O)C(=O)O)cc3)cnc2n1` [aminopterin] (20 µM) was run?
A: Its value is 0.067.

Q: How did the “BRD4 median nuclear fluorescence intensity change (log2)” value turn out when `CC[C@]1(O)C[C@@H]2CN(CCc3c([nH]c4ccccc34)[C@@](C(=O)OC)(c3cc4c(cc3OC)N(C)[C@H]3[C@@](O)(C(=O)OC)[C@H](OC(C)=O)[C@]5(CC)C=CCN6CC[C@]43[C@@H]65)C2)C1` [vinblastine] (20 µM) was run?
A: The value was 0.0812.
